# From the supplement of paper PMC12823440, “Inhibitors supercharge kinase turnover through native proteolytic circuits” (Nature, 2025)
# Sequences of proteins named here, by UniProt entry; tags and fusion partners are left off. A change or cut given only in a name is not applied to a line headed by its entry.
# UniProt Q01974, whole entry: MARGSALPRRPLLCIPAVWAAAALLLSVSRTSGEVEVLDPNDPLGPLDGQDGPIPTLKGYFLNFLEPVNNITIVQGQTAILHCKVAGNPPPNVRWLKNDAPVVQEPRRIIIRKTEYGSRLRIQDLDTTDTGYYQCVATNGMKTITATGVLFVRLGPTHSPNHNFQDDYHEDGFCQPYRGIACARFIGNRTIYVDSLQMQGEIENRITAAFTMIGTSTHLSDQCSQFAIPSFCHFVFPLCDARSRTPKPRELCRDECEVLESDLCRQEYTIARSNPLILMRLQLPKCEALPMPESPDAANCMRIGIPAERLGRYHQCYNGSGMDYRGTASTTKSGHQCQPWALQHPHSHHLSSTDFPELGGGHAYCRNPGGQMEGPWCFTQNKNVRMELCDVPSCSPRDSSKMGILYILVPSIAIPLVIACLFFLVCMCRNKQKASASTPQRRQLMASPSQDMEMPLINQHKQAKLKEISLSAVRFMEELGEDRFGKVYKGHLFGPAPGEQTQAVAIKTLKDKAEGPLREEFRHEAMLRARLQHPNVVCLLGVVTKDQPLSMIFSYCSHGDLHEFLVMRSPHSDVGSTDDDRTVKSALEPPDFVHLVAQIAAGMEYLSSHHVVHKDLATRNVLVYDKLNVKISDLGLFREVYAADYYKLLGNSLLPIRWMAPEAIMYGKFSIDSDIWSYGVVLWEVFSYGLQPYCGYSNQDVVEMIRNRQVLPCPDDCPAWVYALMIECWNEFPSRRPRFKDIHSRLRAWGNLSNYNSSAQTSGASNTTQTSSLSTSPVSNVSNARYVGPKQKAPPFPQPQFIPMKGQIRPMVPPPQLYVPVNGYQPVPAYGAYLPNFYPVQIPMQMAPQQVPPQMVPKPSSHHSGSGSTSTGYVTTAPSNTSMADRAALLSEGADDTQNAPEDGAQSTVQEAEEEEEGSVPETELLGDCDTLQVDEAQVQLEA
# UniProt Q15418, whole entry: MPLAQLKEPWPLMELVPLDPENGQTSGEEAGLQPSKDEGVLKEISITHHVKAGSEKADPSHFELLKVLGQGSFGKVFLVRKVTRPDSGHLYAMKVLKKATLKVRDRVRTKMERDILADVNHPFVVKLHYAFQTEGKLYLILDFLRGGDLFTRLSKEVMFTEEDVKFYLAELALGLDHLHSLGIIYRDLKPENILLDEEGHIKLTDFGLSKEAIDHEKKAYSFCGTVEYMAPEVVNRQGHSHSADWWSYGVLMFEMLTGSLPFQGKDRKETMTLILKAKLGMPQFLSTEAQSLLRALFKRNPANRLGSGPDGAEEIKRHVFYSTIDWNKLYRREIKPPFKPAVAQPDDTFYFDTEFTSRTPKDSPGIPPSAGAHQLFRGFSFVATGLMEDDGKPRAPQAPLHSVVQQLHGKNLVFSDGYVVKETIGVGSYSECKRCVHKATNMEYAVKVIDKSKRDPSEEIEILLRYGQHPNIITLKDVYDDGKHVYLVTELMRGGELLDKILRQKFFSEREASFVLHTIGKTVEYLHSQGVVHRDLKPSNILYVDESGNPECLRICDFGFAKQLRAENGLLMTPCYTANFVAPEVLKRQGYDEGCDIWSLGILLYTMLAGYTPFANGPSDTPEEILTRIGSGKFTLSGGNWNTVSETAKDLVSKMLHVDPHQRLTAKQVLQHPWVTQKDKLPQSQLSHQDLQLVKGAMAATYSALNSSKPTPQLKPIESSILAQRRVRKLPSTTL
# UniProt Q9NYA1, whole entry: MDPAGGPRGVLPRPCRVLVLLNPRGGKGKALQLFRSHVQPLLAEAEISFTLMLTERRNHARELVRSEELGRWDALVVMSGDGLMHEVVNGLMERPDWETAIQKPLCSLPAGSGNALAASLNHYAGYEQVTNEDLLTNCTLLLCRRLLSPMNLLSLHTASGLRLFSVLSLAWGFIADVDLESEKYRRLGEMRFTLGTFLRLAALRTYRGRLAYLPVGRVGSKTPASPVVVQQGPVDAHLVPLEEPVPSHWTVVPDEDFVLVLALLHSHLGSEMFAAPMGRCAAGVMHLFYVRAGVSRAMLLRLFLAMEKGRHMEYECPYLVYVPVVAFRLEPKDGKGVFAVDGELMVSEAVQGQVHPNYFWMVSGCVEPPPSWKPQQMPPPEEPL
# UniProt Q9Y6E0: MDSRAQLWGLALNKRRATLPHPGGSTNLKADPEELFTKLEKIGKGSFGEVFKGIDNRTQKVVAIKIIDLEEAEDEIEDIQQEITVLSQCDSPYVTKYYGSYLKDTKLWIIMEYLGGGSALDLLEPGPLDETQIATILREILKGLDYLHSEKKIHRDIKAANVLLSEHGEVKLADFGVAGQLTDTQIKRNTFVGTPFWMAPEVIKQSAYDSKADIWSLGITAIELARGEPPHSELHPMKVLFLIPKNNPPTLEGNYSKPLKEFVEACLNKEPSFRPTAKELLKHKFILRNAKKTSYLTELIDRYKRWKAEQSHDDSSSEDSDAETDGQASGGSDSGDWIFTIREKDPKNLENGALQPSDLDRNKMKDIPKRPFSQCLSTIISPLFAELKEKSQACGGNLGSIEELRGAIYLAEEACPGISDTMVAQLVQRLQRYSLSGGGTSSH
# UniProt Q15208: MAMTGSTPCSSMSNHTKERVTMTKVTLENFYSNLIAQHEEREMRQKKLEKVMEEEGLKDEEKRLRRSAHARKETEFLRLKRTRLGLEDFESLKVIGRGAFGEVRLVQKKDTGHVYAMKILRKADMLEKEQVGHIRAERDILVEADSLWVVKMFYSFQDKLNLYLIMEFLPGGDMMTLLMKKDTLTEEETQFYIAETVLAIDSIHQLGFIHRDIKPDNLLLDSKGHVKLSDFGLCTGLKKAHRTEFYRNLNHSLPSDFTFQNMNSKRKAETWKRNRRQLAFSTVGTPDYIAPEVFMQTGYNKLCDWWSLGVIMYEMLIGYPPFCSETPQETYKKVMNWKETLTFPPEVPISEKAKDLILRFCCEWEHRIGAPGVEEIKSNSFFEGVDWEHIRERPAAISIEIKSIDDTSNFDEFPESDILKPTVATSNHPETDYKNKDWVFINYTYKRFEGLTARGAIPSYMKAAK
# UniProt P42680: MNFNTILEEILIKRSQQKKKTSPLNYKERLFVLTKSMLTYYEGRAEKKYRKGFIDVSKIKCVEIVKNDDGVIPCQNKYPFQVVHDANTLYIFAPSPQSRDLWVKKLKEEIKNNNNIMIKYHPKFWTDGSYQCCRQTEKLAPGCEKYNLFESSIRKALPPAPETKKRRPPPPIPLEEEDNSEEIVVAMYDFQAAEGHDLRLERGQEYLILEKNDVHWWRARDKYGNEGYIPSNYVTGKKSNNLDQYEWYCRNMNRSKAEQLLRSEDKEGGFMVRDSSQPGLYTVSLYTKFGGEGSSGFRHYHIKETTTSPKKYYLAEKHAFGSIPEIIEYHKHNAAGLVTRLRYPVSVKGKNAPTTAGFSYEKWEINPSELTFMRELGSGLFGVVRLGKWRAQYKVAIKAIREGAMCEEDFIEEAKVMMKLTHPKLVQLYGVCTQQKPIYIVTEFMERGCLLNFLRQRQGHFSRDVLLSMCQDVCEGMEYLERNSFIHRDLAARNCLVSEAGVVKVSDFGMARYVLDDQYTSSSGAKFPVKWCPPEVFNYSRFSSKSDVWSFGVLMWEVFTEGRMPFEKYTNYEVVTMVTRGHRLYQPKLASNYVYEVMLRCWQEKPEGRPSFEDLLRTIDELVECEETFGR
# UniProt P29597: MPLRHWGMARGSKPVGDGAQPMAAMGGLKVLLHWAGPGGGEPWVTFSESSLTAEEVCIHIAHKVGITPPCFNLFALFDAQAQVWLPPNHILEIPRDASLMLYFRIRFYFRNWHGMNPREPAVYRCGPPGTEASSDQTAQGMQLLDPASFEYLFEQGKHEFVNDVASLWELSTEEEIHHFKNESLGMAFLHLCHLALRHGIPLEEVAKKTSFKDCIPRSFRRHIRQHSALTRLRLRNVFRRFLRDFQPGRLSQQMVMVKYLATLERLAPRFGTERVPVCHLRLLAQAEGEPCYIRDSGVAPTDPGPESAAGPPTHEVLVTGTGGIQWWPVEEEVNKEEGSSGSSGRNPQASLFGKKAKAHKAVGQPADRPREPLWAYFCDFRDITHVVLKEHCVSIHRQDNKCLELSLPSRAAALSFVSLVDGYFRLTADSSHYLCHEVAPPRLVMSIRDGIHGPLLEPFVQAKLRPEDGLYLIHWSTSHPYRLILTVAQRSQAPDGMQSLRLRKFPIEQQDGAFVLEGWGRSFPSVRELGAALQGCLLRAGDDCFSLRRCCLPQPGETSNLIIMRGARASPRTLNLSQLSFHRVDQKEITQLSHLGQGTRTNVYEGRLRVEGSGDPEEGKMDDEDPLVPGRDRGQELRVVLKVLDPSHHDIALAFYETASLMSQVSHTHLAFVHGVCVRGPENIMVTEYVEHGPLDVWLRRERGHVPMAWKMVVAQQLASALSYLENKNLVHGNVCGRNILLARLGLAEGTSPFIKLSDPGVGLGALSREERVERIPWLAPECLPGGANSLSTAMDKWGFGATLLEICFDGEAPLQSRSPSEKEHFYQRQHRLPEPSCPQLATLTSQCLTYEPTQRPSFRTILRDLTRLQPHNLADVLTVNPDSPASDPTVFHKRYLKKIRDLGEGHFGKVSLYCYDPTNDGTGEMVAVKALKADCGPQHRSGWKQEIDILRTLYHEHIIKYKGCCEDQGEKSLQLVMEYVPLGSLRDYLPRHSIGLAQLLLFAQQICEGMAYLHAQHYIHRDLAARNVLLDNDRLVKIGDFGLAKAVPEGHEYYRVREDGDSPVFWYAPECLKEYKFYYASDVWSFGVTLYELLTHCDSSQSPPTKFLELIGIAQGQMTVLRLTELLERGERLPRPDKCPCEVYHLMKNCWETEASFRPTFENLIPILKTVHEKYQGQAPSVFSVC
# UniProt P07947, whole entry, looked up: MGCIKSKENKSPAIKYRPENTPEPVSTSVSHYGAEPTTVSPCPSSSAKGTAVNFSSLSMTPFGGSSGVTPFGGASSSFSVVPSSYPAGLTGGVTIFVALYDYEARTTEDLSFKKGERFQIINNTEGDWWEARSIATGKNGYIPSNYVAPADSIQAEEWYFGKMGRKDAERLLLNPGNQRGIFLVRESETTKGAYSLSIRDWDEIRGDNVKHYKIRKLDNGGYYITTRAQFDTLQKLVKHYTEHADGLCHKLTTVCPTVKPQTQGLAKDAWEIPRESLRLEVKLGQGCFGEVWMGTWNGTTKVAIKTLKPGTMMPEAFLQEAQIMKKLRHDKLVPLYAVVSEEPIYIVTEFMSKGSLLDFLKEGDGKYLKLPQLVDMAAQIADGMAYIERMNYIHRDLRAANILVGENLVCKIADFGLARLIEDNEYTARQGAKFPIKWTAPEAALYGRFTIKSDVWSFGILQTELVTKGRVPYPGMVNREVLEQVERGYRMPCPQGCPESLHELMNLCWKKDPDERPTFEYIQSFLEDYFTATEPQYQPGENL
# UniProt P43403: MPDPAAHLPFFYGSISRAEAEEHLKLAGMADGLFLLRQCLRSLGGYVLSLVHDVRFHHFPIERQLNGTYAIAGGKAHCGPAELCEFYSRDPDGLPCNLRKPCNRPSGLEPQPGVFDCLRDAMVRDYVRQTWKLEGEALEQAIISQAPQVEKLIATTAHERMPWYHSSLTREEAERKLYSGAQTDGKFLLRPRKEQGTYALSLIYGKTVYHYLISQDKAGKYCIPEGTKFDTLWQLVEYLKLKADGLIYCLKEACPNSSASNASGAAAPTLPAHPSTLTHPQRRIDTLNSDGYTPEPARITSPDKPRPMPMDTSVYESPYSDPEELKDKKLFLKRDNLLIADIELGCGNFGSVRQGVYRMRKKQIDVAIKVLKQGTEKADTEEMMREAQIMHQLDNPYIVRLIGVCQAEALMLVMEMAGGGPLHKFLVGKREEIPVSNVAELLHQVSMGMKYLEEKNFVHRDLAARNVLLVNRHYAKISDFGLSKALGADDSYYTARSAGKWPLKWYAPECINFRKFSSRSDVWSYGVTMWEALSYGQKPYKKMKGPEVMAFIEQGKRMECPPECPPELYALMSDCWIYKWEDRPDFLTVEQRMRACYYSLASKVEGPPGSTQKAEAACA
# UniProt P11802: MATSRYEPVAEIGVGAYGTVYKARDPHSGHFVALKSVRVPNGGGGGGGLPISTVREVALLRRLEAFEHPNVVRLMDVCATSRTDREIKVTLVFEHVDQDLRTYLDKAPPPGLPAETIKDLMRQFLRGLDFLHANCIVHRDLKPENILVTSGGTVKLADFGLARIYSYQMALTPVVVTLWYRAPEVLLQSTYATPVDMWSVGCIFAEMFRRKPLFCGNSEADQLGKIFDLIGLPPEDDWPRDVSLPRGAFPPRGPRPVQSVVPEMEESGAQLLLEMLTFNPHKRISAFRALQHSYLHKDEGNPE
# UniProt P50613: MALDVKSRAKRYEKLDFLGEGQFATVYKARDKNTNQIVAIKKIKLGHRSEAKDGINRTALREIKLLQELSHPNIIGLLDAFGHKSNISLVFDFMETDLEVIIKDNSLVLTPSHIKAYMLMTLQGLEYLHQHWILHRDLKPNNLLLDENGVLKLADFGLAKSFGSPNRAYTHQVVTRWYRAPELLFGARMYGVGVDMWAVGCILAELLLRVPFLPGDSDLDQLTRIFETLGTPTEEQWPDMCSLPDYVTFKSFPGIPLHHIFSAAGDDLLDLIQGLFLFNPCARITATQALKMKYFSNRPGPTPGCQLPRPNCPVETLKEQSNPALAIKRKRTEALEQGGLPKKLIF
# The list shows a part of the results. Hit calls seldom repeat between salt and free forms of one compound.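 In K562 cells expressing nanoluciferase-fused kinases, luminescence was recorded at 4 h intervals between 2 and 18 h, normalized as percent of control with DMSO at 100% and a positive control at 0%. A significant (2 sigma) signal drop marks a time point as decreased. The authors' rule for a hit is not shown and takes in more than the number of time points.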
# Experiments:
# Details in all cases: K562; 2-18 h
# ROR2 = ROR2 (UniProt Q01974); test: number of time points (of 5) at which kinase-Nluc abundance scored as decreased, DMSO-normalised (count); higher = more persistent destabilization
# RPS6KA1 = RPS6KA1 (UniProt Q15418); test: as above
# SPHK1 = SPHK1 (UniProt Q9NYA1); test: as above
# SRC = SRC (UniProt P12931); test: as above
# STK24 = STK24 (UniProt Q9Y6E0); test: as above
# STK38 = STK38 (UniProt Q15208); test: as above
# SYK = SYK (UniProt P43405); test: as above
# TEC = TEC (UniProt P42680); test: as above
# TYK2 = TYK2 (UniProt P29597); test: as above
# ULK3 = ULK3 (UniProt Q6PHR2); test: as above
# YES1 = YES1 (UniProt P07947); test: as above
# ZAK = ZAK (UniProt Q9NYL2); test: as above
# ZAP70 = ZAP70 (UniProt P43403); test: as above
# CDK4 = CDK4 (UniProt P11802); test: number of time points (of 4; 2 h point missing) at which kinase-Nluc abundance scored as decreased, DMSO-normalised (count); higher = more persistent destabilization
# CDK7 = CDK7 (UniProt P50613); test: as above
# CDK9 = CDK9 (UniProt P50750); test: as above
SMILES,number of time points (ROR2),number of time points (RPS6KA1),number of time points (SPHK1),number of time points (SRC),number of time points (STK24),number of time points (STK38),number of time points (SYK),number of time points (TEC),number of time points (TYK2),number of time points (ULK3),number of time points (YES1),number of time points (ZAK),number of time points (ZAP70),number of time points (CDK4),number of time points (CDK7),number of time points (CDK9)
Cc1cccc(Oc2cnc(=O)[nH]c2)c1 [Tolimidone] (10 µM),0,0,0,0,0,0,0,0,0,0,0,0,0,0,0,0
c1cncc(CN2CCC(n3ncc4c(N5CCOCC5)nc(-c5ccc6[nH]ccc6c5)nc43)CC2)c1 (10 µM),0,0,0,0,0,1,0,0,0,3,0,1,0,0,2,2
COc1cc2c(cc1OC)CN(S(=O)(=O)c1ccc(OC)c(N3CCN(C(=O)c4ccc(F)cc4C(F)(F)F)CC3)c1)CC2 (10 µM),0,0,0,0,0,0,0,0,0,0,0,0,0,0,0,0
CNC(=O)c1ccc(C)c(-n2c(C)cc(OCc3ccc(F)cc3F)c(Br)c2=O)c1 (10 µM),0,0,0,0,0,0,0,0,0,0,0,0,0,0,0,0
O=C(N/N=C/c1coc2ccccc2c1=O)c1cccnc1 (10 µM),0,0,0,0,0,0,0,0,0,0,0,0,0,0,0,0
Cc1nc(-c2cn3c(n2)-c2ccc(-c4cnn(C(C)(C)C(N)=O)c4)cc2OCC3)n(C(C)C)n1 [Taselisib] (10 µM),0,0,0,0,0,0,0,0,0,0,0,0,0,0,0,0
Cc1c(NC(=O)c2cccn(-c3ccc(F)cc3)c2=O)ccc(Oc2ccnc(NC(=O)C3CC3)c2)c1C (2 µM),0,0,0,0,0,0,0,0,3,0,1,0,0,0,3,0
COc1cc(Nc2ncc(F)c(Nc3ccc4c(n3)NC(=O)C(C)(C)O4)n2)cc(OC)c1OC [R406 (free base)] (10 µM),0,0,0,0,0,0,–,0,0,0,0,0,0,0,0,0
Cc1cc(O)c2c(c1)C(=O)c1cc(O)cc(O)c1C2=O [Emodin] (10 µM),0,0,4,0,0,0,0,0,0,0,0,0,0,0,0,0
c1cc(-c2c[nH]c3nccc(N4CCC[C@@]5(CCCCN5)C4)c23)ncn1 (10 µM),0,0,0,0,0,0,0,0,0,0,0,0,0,0,0,0
Cc1ccc(CNc2ncnc3ccc(-c4ccc(CO)o4)cc23)o1 (10 µM),0,0,0,0,0,0,0,0,0,0,0,0,0,0,0,0
Cc1[nH]c(/C=C2\C(=O)Nc3ccccc32)c(C)c1CCC(=O)O [Orantinib] (10 µM),0,–,0,0,0,0,0,0,0,0,0,0,0,0,0,0
CC1(C)C(O[C@@H]2OC[C@@H](O)[C@H](O)[C@H]2O)CC[C@]23CC24CC[C@]2(C)[C@@H]([C@@]5(C)CC[C@@H](C(C)(C)O)O5)[C@H](O)C[C@@]2(C)C4C[C@@H](O[C@@H]2O[C@H](CO)[C@@H](O)[C@H](O)[C@H]2O)C13 (stereo partly specified) [Astragaloside IV] (10 µM),0,0,0,0,0,0,0,0,0,0,0,0,0,0,0,0
CCN1CCN(Cc2ccc(Nc3ncc(F)c(-c4cc(F)c5nc(C)n(C(C)C)c5c4)n3)nc2)CC1 [Abemaciclib (methanesulfonate)] (10 µM),0,0,0,0,0,0,0,0,0,0,0,0,0,0,0,0
CCN1CCN(Cc2ccc(Nc3ncc(F)c(-c4cc(F)c5nc(C)n(C(C)C)c5c4)n3)nc2)CC1 [Abemaciclib] (2 µM),0,0,0,0,0,–,0,0,–,0,0,0,0,0,0,0
C[C@@H]1CCN(C(=O)CC#N)C[C@@H]1N(C)c1ncnc2[nH]ccc12 [Tofacitinib (citrate)] (10 µM),0,0,0,0,0,0,–,0,0,0,0,0,0,0,0,0
CN(CC(=O)N(Cc1ccc(C2CCCCC2)cc1)c1ccc(C(=O)NO)cc1)S(=O)(=O)c1c(F)c(F)c(F)c(F)c1F (2.5 µM),0,0,0,0,0,0,0,0,0,0,0,0,0,0,0,0

# Rewritten as tab-separated lines: part of the list above
SMILES	number of time points (ROR2)	number of time points (RPS6KA1)	number of time points (SPHK1)	number of time points (SRC)	number of time points (STK24)	number of time points (STK38)	number of time points (SYK)	number of time points (TEC)	number of time points (TYK2)	number of time points (ULK3)	number of time points (YES1)	number of time points (ZAK)	number of time points (ZAP70)	number of time points (CDK4)	number of time points (CDK7)	number of time points (CDK9)
COc1cc2c(cc1OC)CN(S(=O)(=O)c1ccc(OC)c(N3CCN(C(=O)c4ccc(F)cc4C(F)(F)F)CC3)c1)CC2 (10 µM)	0	0	0	0	0	0	0	0	0	0	0	0	0	0	0	0
COc1cc(Nc2ncc(F)c(Nc3ccc4c(n3)NC(=O)C(C)(C)O4)n2)cc(OC)c1OC [R406 (free base)] (10 µM)	0	0	0	0	0	0	–	0	0	0	0	0	0	0	0	0
Cc1cc(O)c2c(c1)C(=O)c1cc(O)cc(O)c1C2=O [Emodin] (10 µM)	0	0	4	0	0	0	0	0	0	0	0	0	0	0	0	0
c1cc(-c2c[nH]c3nccc(N4CCC[C@@]5(CCCCN5)C4)c23)ncn1 (10 µM)	0	0	0	0	0	0	0	0	0	0	0	0	0	0	0	0
Cc1[nH]c(/C=C2\C(=O)Nc3ccccc32)c(C)c1CCC(=O)O [Orantinib] (10 µM)	0	–	0	0	0	0	0	0	0	0	0	0	0	0	0	0
CC1(C)C(O[C@@H]2OC[C@@H](O)[C@H](O)[C@H]2O)CC[C@]23CC24CC[C@]2(C)[C@@H]([C@@]5(C)CC[C@@H](C(C)(C)O)O5)[C@H](O)C[C@@]2(C)C4C[C@@H](O[C@@H]2O[C@H](CO)[C@@H](O)[C@H](O)[C@H]2O)C13 (stereo partly specified) [Astragaloside IV] (10 µM)	0	0	0	0	0	0	0	0	0	0	0	0	0	0	0	0
CCN1CCN(Cc2ccc(Nc3ncc(F)c(-c4cc(F)c5nc(C)n(C(C)C)c5c4)n3)nc2)CC1 [Abemaciclib] (2 µM)	0	0	0	0	0	–	0	0	–	0	0	0	0	0	0	0

# Additional entries.

SMILES,number of time points (ROR2),number of time points (RPS6KA1),number of time points (SPHK1),number of time points (SRC),number of time points (STK24),number of time points (STK38),number of time points (SYK),number of time points (TEC),number of time points (TYK2),number of time points (ULK3),number of time points (YES1),number of time points (ZAK),number of time points (ZAP70),number of time points (CDK4),number of time points (CDK7),number of time points (CDK9)
COc1cc(OC2CCN(C)CC2)ccc1Nc1ncc2c(n1)n(C1CCCC1)c(=O)n2C (10 µM),0,0,0,0,0,0,0,0,0,0,0,0,0,0,0,0
Oc1ccc(Nc2nc(-c3ccc(Cl)cc3)cs2)cc1 (10 µM),0,0,0,0,0,0,0,0,0,0,0,0,0,0,0,0
NC(=O)c1nnc(N[C@@H]2CCCC[C@@H]2N)nc1Nc1cccc2cc[nH]c12 (10 µM),0,0,0,0,0,0,0,0,0,0,0,0,0,0,0,0
C[C@@H]1CCN(C(=O)CC#N)C[C@@H]1N(C)c1ncnc2[nH]ccc12 [Tofacitinib] (10 µM),0,0,0,0,0,0,–,0,0,0,0,0,0,0,0,0
C=C(CC[C@@H](C(=O)O)[C@H]1[C@H](O)C[C@@]2(C)C3=C(CC[C@]12C)[C@@]1(C)CC[C@H](OC(C)=O)C(C)(C)[C@@H]1CC3)C(C)C [Pachymic acid] (10 µM),0,0,0,0,0,0,0,0,0,0,0,0,0,0,0,0
CS(=O)(=O)Nc1cc(-c2ccc3ncnc(Nc4ccc(F)c(Cl)c4)c3c2)cnc1Cl (2.5 µM),0,0,0,0,0,0,0,2,0,0,0,0,0,0,0,0
FC(F)(F)c1ccc(CNc2ccc(Cc3c[nH]c4ncccc34)cn2)cc1 (10 µM),0,0,0,0,0,0,0,0,0,0,0,0,0,0,0,0
FC(F)c1nc2ccccc2n1-c1nc(N2CCOCC2)nc(N2CCOCC2)n1 (2 µM),0,0,0,0,0,0,0,0,0,0,0,0,0,0,0,0
CCS(=O)(=O)c1ncc(Cl)c(C(=O)N(Cc2ccc(Cl)cc2)Cc2ccco2)n1 (2.5 µM),0,0,0,0,0,0,0,0,0,0,0,0,0,0,0,0
O=C(Nc1cn[nH]c1-c1ccccn1)c1nn(C2CCNCC2)cc1Cl (10 µM),0,0,0,0,0,0,0,0,0,0,0,0,0,0,0,0
O=C1N[C@@H](Cc2c[nH]c3ccccc23)C(=O)N2CCC[C@@H]12 [Brevianamide F] (10 µM),0,0,0,0,0,0,0,0,0,0,0,0,0,0,0,0
COc1ccc(Cl)c(Nc2nc3ccccc3nc2NS(=O)(=O)c2cccc(NC(=O)C(C)(C)N)c2)c1 [Pilaralisib] (10 µM),0,0,0,0,0,0,0,0,0,0,0,0,0,0,0,0
Cc1ccc2nc(NCCN)c3ncc(C)n3c2c1 (2.5 µM),0,0,0,0,0,0,0,0,–,0,0,0,0,0,0,0
CCN1CCC(n2cc(CNc3cc(Cl)c4ncc(C#N)c(Nc5ccc(F)c(Cl)c5)c4c3)nn2)CC1 [Cot inhibitor-2] (2.5 µM),0,0,0,0,0,0,0,0,0,0,0,0,0,0,0,0
Cc1cc2ncc(-c3ccc(O)c(O)c3)nc2cc1C [Tyrphostin AG1433] (10 µM),0,0,0,0,0,0,0,0,0,0,0,0,0,0,0,0
Cn1cnc2c(F)c(Nc3ccc(Br)cc3Cl)c(C(=O)NOCCO)cc21 [Selumetinib (sulfate)] (10 µM),0,0,0,0,0,0,0,0,0,0,0,0,0,0,1,0
